Test results as given in article PMC3157439.

Molecular target: T1, cytoplasmic domain of mouse GPR50 (amino acids 304-592) (mouse) (UniProt O88495)
T1 sequence: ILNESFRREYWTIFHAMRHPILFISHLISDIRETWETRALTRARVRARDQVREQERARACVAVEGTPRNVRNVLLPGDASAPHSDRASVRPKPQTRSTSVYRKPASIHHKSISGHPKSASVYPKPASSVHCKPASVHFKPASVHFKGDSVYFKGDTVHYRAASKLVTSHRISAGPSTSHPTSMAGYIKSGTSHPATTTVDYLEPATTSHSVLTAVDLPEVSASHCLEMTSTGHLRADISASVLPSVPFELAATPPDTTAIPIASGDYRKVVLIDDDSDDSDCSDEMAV
Assay: two-hybrid; library screen in yeast AH109 (Gal4 system); bait pGBKT7-cGPR50, mouse testis cDNA library in pACT2; growth on Trp-Leu-His-Ade- plates and beta-galactosidase (X-gal) colour

With Syndecan binding protein 8 (mouse) the binding was “binds”.

For TBC1domain member 19 (mouse), the binding was “binds”.

Results are given in words; binding and its absence hold for the method and conditions named. Binding can be weak; no strength is given.
